Data reported in paper doi:10.1101/2024.07.10.602881.

Chains of the proteins cited; added tags and fusions are not shown. Lines headed by an entry give the natural chain unless they say otherwise; changes in a name come on top. Residues count along the entry.
UniProt P07948: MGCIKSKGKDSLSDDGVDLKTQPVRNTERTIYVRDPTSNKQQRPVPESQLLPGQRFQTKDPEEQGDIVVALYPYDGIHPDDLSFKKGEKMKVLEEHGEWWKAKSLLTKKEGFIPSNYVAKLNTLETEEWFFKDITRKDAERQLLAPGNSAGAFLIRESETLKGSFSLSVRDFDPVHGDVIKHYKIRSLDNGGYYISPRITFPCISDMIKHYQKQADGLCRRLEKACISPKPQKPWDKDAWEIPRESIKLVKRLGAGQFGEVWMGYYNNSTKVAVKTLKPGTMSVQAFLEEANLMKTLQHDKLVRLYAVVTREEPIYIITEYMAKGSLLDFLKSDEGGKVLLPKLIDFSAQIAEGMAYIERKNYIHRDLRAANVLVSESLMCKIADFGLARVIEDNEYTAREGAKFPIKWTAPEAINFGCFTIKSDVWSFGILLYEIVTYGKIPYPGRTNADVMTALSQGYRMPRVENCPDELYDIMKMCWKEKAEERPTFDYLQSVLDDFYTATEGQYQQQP
UniProt P51451: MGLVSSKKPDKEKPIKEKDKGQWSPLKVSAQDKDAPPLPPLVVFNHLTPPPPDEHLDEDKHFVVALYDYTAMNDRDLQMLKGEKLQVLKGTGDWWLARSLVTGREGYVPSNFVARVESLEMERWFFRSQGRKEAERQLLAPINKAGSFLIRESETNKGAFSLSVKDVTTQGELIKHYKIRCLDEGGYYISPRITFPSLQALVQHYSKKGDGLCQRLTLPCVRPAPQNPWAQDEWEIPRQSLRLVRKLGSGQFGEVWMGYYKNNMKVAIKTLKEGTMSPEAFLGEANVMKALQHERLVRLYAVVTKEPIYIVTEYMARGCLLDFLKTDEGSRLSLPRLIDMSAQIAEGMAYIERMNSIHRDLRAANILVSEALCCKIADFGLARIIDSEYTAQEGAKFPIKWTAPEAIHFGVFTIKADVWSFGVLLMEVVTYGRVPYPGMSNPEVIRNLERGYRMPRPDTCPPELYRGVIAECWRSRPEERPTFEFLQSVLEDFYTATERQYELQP
UniProt Q13191: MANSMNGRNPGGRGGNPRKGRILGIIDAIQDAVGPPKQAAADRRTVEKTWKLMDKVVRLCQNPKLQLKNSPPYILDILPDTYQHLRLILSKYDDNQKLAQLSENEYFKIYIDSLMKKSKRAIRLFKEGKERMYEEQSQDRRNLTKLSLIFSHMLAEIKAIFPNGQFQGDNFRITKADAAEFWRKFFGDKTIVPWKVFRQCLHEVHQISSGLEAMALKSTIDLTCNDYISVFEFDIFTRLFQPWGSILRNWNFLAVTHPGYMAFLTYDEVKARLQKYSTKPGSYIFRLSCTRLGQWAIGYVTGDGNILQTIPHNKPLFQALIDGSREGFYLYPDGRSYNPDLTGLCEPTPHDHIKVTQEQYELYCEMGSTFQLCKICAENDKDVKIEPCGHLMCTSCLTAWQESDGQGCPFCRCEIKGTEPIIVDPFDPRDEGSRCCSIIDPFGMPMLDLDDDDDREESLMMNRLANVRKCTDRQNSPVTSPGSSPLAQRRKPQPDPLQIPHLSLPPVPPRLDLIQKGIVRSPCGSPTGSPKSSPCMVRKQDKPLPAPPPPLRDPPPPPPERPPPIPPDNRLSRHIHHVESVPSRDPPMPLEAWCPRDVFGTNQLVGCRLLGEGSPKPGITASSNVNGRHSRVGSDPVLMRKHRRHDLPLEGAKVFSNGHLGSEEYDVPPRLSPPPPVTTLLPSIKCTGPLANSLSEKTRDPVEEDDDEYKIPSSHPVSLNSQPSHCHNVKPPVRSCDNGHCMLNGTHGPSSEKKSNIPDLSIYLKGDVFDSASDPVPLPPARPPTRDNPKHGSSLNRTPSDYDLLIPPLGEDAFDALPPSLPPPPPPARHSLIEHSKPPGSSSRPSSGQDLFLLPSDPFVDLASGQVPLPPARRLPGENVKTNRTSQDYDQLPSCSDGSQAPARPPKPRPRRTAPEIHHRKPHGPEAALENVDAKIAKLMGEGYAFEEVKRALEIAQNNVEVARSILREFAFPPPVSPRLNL
UniProt Q92542, residues 34-709: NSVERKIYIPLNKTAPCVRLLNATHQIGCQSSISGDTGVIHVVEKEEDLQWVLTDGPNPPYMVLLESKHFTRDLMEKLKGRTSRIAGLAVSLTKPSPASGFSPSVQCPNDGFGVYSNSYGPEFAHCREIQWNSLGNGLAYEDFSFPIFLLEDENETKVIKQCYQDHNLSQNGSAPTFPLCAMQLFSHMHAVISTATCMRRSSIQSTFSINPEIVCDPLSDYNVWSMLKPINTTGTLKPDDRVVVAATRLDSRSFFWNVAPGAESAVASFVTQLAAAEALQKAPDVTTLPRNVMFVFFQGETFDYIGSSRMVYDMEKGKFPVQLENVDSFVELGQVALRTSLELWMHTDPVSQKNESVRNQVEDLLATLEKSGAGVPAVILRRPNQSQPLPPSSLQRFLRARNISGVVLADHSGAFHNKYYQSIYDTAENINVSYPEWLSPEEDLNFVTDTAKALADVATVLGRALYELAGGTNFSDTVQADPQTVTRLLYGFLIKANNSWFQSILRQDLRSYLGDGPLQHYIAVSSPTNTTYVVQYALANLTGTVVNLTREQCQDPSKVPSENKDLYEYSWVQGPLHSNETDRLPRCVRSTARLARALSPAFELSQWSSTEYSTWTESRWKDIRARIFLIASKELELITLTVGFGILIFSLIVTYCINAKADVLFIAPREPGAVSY
UniProt O14672: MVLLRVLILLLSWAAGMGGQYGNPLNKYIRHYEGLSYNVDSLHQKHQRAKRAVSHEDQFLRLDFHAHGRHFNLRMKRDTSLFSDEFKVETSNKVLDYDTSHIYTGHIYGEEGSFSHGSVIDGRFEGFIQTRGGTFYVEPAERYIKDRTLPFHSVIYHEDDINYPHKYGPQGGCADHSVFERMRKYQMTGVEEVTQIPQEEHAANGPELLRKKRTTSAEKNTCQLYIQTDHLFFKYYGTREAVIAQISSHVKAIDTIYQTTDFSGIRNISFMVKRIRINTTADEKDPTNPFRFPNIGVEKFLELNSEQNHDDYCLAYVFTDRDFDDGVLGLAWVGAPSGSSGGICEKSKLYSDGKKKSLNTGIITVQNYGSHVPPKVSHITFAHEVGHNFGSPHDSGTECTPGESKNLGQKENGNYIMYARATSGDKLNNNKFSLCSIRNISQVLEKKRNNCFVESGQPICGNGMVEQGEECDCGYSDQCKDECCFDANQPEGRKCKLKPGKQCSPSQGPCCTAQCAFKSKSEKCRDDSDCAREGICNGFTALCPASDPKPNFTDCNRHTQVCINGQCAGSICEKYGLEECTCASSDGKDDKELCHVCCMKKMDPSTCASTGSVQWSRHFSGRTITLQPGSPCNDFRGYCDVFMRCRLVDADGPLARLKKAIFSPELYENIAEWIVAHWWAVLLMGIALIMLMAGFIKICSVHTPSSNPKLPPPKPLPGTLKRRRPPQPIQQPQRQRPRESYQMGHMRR

Experiments:
[1] = target: LYN fused to the miniTurbo (mT) biotin ligase (UniProt P07948); assay: proximity labelling
[2] = target: BLK fused to the miniTurbo (mT) biotin ligase (UniProt P51451); assay: proximity labelling

| Substance | binding [1] | binding [2] |
| --- | --- | --- |
| E3 ligase CBL-B (from UniProt Q13191 1-982) | binds | – |
| γ-secretase subunit NCSTN (from UniProt Q92542 34-709) | – | binds |
| ADAM10 (from UniProt O14672) | – | binds |

These are yes or no findings as the source states them, for the method shown. Binding seen in cells or lysates may run through a third protein. Here binding means that the protein was enriched with, or labelled near, the bait; the list need not be complete.
